# Laboratory results from PMC11561020.
# The exact form of at least one protein or probe is not confirmed. Negatives hold for the conditions tested.
# Test system: GST-Hap2 core (PoHap2) + GST-Hap3 (PoHap3) + GST-Hap5 (PoHap5)
# Experiment: EMSA
# Settings: 13 pmol each protein in 20 ul, 20 ul: binding buffer of Papagiannopoulos et al. 1996 (composition and pH not given), 1 ug poly(dI-dC), 100 nmol DTT, 500 or 250 pmol random ds oligo, 2.5 pmol probe, recombinant protein, protein details: N-terminal GST (pGEX-6P-1),GST,GST, label: Cy5 (on selex_fm2)
Sequence,binding result (no shift),"binding result (also 2 pmol each, two shifted bands, poly(dI-dC) and random ds oligo present)"
"GTGAAGCGCCGGCATCAGCGCCTGTAGCGTGTTCGGCAACTT (double strand) [probe 2 (mutated CCAAT, TNS13)]",no binding,–
"GTGATTGGCCGGCATCAGCGCCTGTAGCGTGTTCGGCAACTT (double strand) [probe 1 (vp2 CCAAT, TNS12)]",–,binds
